From PubChem BioAssay AID2685 (National Center for Advancing Translational Sciences (NCATS), 2010)
This is one part of the list. Shown are side measurements of this screen, not its main read-out; they come without a call. Compounds called inactive in the main read-out are mostly missing here. Potencies come from curve fits of mixed quality, noted in brackets.

Test: qHTS Assay for Lipid Storage Modulators in Drosophila S3 Cells;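 on cell number change: cells counted by Cell Tracker Red CMTPX staining in the red channel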
Details: BODIPY lipid droplet fluorescence, 18-24 h; for cell number change: measured here: cell count max response, cells fed with added oleic acid
Procedure, shortened: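 Drosophila S3 cells got compounds at several concentrations plus oleic acid (400 uM solution). Laser-scanning cytometry with 488 nm excitation read lipid droplets at 500-530 nm and cells at 575-640 nm. Percent activity was relative to 20 uM Triacsin C.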

[1] = measured here: cell number channel AC50, cells fed with added oleic acid
[2] = measured here: lipid fluorescence (Fed channel) AC50, cells fed with added oleic acid

Structure (SMILES)	cell number change [%]	AC50 [1]	AC50 [2]
CCN1C(=O)/C(=C/C=C2\C=CN(CC)c3ccccc32)SC1=S	-18.2	2.06 µM [falling, partial curve, poor fit]	8.2 µM [falling, partial curve, poor fit]
O=C(NCCC1CCCCN1S(=O)(=O)c1ccccc1)C(=O)NCc1ccco1 (stereo unspecified)		4.11 µM [rising, partial curve, poor fit]	6.51 µM [rising, single point]
Cc1cn(S(=O)(=O)c2ccc(Br)cc2)cn1	28.9	4.61 µM [rising, full curve, poor fit]	6.51 µM [rising, full curve, poor fit]
OCc1ncccc1O	-26.2		11.6 µM [falling, single point]
COc1cccc(OCCCCN2CCCCC2)c1	-0.922	0.58 µM [falling, single point]	
Fc1ccc(OCCCCCCN2CCCC2)cc1	-3.23		0.731 µM [rising, single point]
CC(C)CCN1C(=O)c2ccc(C(=O)Nc3ccccn3)cc2C1=O	-20.9		0.461 µM [falling, full curve]
COc1ccccc1/C=C(/NC(=O)c1ccc(Cl)cc1Cl)C(=O)O			0.58 µM [rising, single point]
COc1ccc(/C=C2/N=C(c3cccs3)OC2=O)cc1OC(C)C	-35.5	32.6 µM [falling, single point]	25.9 µM [falling, single point]
Cc1cccc(N2CCN(C(=O)CCn3c(=O)[nH]c4ccsc4c3=O)CC2C)c1 (stereo unspecified)	-23.8		0.092 µM [rising, full curve, poor fit]
COc1cc(C(=O)NCC(c2ccccc2)N(C)C)ccc1OCC(=O)N1CCOCC1 (stereo unspecified)	-20.6	0.00461 µM [falling, full curve, poor fit]	5.17 µM [falling, full curve]
NC(=O)Nc1ccc2c(c1)OCCO2	-38.7	3.26 µM [falling, full curve]	
COc1ccc(C2N(C(=O)c3ccccc3)CCN2C(=O)c2ccc(C)cc2)cc1 (stereo unspecified)	-7.23		
CCOc1ccc(C(c2c(O)nc(SC)n(C)c2=O)c2c(O)nc(SC)n(C)c2=O)cc1	2.79		
Cc1ccc(NC(=O)Cn2cccc2C2=NC(c3ccccc3)CO2)c(C)c1 (stereo unspecified)	47.3	2.59 µM [rising, partial curve]	7.31 µM [rising, partial curve]
O=C(NCCC1=CCCCC1)C1COc2ccccc2O1 (stereo unspecified)	-9.21		0.651 µM [falling, single point]
Cn1c(=O)c2c(nc(CN3CCc4ccccc4C3)n2Cc2ccccc2)n(C)c1=O	-29.9		29.1 µM [falling, single point]
Brc1cc2c(cc1CN1CCc3ccccc3C1)OCO2	18.1		
N#CC(C#N)=C1C=C2C=C(N3CCCCC3)CCC2CC1 (stereo unspecified)	-99.6	0.58 µM [falling, full curve]	0.231 µM [falling, full curve]
CC1(C)CC2(C)OCCN2C(=S)N1 (stereo unspecified)	-13.3		32.6 µM [falling, single point]

Structure (SMILES)	cell number change [%]	AC50 [1]	AC50 [2]
O=C1C(=O)N(c2ccccn2)C(c2ccc(Br)cc2)/C1=C(/O)c1ccc(Br)cc1 (stereo unspecified)	-5.56		29.1 µM [rising, single point]
CSCC[C@H](NC(=O)OC(C)(C)C)c1nnc(SCc2ccccc2)o1	-30.2	18.4 µM [falling, partial curve]	
COc1ccc(CCNC(=O)C2CCC(=O)N(C3CCCCCC3)C2)cc1 (stereo unspecified)	34	23.1 µM [rising, single point]	
OCC1(CO)COC(CCc2ccccc2)=N1	26.7		29.1 µM [rising, single point]
CC(C(=O)Nc1ccccn1)N1C(=O)C2C3C=CC(C3)C2C1=O (stereo unspecified)	1.15		0.58 µM [falling, full curve, poor fit]
Cc1ccc(S(=O)(=O)CCC(=O)N(Cc2nnc(-c3ccc(Cl)cc3)o2)C2CC2)cc1	-12.5		0.206 µM [falling, full curve, poor fit]
CC1(C)CC(=O)C2=C(C1)N(CC1CCCO1)C(=O)C2(NC(=O)c1cccnc1)C(F)(F)F (stereo unspecified)	-22.5	0.00461 µM [falling, full curve, poor fit]	
CCNc1nc(N2CCOCC2)nc(N(c2ccccc2)c2ccccc2)n1	-82.4	18.4 µM [falling, single point]	6.51 µM [falling, partial curve, poor fit]
OC(CNC1CCCC1)COc1c(F)cc(Br)cc1F (stereo unspecified)	-8.45		
COc1cccc(CNC(=O)CN(c2ccc(C(C)C)cc2)S(=O)(=O)c2c(C)noc2C)c1		0.00517 µM [rising, full curve, poor fit]	
COc1ccc(-n2nc3c(c2NC(=O)C24CC5CC(CC(C5)C2)C4)CS(=O)C3)cc1 (stereo unspecified)	11.6		16.4 µM [rising, single point]
O=C(NCCc1ccccc1F)c1ccc2c(c1)OCCO2	10.5		6.51 µM [rising, partial curve, poor fit]
Cc1ccc2occ(/C=N/NC(=O)c3ccc(Cl)cc3)c(=O)c2c1	20.9		1.58 µM [rising, full curve, poor fit]
CCCC(C)NC(=O)CSCc1ccc(OC)cc1 (stereo unspecified)	-13.3		2 µM [falling, full curve]
Cc1ccc(OCCOc2cccc3ccc(C)nc23)c([N+](=O)[O-])c1	-1.54		
N#Cc1c(NC(=O)COC(=O)c2ccc(F)cc2)sc2c1CCC2	-14		0.0291 µM [falling, full curve, poor fit]
O=C(NC1CCCCC1)c1ccc(Cl)c(NC(=O)c2ccccc2F)c1	8.31		0.058 µM [rising, full curve, poor fit]
O=C(CSc1nc(=O)n2cc(Cl)ccc2n1)Nc1ccc2c(c1)OCO2	33.5	0.291 µM [rising, single point]	
COC(=O)c1ccc(C2Nc3ccccc3NC3=C2C(=O)CC(C)(C)C3)cc1 (stereo unspecified)	7.61		29.1 µM [rising, single point]
Cc1nn(C)c(C)c1/C=C/C(=O)O	-18.3	0.082 µM [falling, full curve, poor fit]	6.51 µM [falling, partial curve]

Laid out differently: entries from further up
COc1ccc(-n2nc3c(c2NC(=O)C24CC5CC(CC(C5)C2)C4)CS(=O)C3)cc1 (stereo unspecified)
  cell number change [%]: 11.6; AC50 [2]: 16.4 µM [rising, single point]
O=C(NCCc1ccccc1F)c1ccc2c(c1)OCCO2
  cell number change [%]: 10.5; AC50 [2]: 6.51 µM [rising, partial curve, poor fit]

Exported as a markdown table: entries from further up.

| Structure (SMILES) | cell number change [%] | AC50 [1] | AC50 [2] |
| --- | --- | --- | --- |
| CCCC(C)NC(=O)CSCc1ccc(OC)cc1 (stereo unspecified) | -13.3 |  | 2 µM [falling, full curve] |
| Cc1ccc(OCCOc2cccc3ccc(C)nc23)c([N+](=O)[O-])c1 | -1.54 |  |  |

More results

Structure (SMILES)	cell number change [%]	AC50 [1]	AC50 [2]
COc1ccccc1-n1c(COc2ccccc2-c2ccccc2)nnc1SCC(=O)c1c(N)n(C)c(=O)n(C)c1=O		6.51 µM [rising, single point]	6.51 µM [rising, single point]
COc1cccc(-c2ncc3ccccc3c2COC(=O)N2CCCCC2)c1	14.6		
Cc1cc(C)c(-n2c(SCc3nc4ccccc4s3)n[nH]c2=O)c(C)c1	19.4	0.164 µM [rising, full curve, poor fit]	
O=C(c1ccc(Cl)c(S(=O)(=O)Nc2ccccc2C(=O)N2CCc3ccccc3C2)c1)N1CCc2ccccc2C1	19.6		13 µM [rising, partial curve]
Cc1ccc(Sc2nc(C)cc(C)c2S(C)(=O)=O)cc1	10.5		6.51 µM [rising, full curve, poor fit]
CCn1ncc(C(=O)Nc2ccc(S(=O)(=O)N3CCCC3)cc2)c1C	-1.48		0.731 µM [rising, full curve, poor fit]
O=C(/C=C/c1ccco1)N/C(=C\c1ccccc1)C(=O)NCCc1nc2ccccc2[nH]1	-41.1	2.59 µM [rising, partial curve]	6.51 µM [rising, single point]
C/[N+]([O-])=C/c1c(OCc2ccc(Cl)cc2Cl)ccc2ccccc12	-6.15	0.58 µM [falling, single point]	0.58 µM [falling, single point]
COc1ccc(N/C(C)=C2/C(=O)C(=O)N(CCO)C2c2ccc([N+](=O)[O-])cc2)cc1 (stereo unspecified)	-12.1		29.1 µM [falling, single point]
Cc1onc(-c2ccccc2Cl)c1C(=O)NCc1ccccc1F	-8.91		29.1 µM [rising, single point]
COc1ccc(OC)c(NS(=O)(=O)c2cccc3cccnc23)c1	19.8		29.1 µM [falling, single point]
CCCOc1nc2c(c(=O)n(C)c(=O)n2C)n1C	9.57		29.1 µM [rising, single point]
Cn1c(=O)c2ncn(CC(=O)NCCOc3ccccc3)c2n(C)c1=O	1.02		29.1 µM [rising, single point]
Cc1ccc(C[n+]2ccccc2)cc1	-10.1		32.6 µM [falling, single point]
Cc1ccc2cccc(OCCCOc3ccccc3CO)c2n1	-18.1		18.4 µM [rising, partial curve, poor fit]
COc1ccc(-n2nc([N+](=O)[O-])c(=NCCc3ccccc3)n2O)cc1	1.06		2.31 µM [rising, single point]
c1cnc(N2CCSCC2)nc1	1.04		0.058 µM [falling, full curve, poor fit]
O=C(CCn1cnnn1)Nc1cccc(F)c1	-27.1	3.66 µM [falling, single point]	0.651 µM [falling, full curve]
N=c1ncn(CC(O)CN2CCOCC2)c2nc(N3CCOCC3)[nH]c12 (stereo unspecified)	-12.6		3.26 µM [falling, partial curve]
